Laboratory results taken from patent US20240261378A1.
No constants are given. Whether binding was seen depends on the method and setting. Binding seen in cells or lysates may run through a third protein. Some binding calls cover weakened binding; strength is not graded here. For some of these results: Sequences can lack the tags named with a protein.

Amino acid sequences for entries named in this document (tags omitted). A change or cut given only in a name is not applied to a line headed by its entry.
UniProt P17931: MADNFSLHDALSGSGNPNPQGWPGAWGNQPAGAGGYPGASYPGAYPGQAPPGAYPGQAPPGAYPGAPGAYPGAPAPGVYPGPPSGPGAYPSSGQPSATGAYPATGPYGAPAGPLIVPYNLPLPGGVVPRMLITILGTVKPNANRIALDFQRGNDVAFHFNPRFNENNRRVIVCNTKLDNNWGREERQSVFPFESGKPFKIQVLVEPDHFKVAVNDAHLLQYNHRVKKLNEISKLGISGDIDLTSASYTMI
UniProt Q9C030: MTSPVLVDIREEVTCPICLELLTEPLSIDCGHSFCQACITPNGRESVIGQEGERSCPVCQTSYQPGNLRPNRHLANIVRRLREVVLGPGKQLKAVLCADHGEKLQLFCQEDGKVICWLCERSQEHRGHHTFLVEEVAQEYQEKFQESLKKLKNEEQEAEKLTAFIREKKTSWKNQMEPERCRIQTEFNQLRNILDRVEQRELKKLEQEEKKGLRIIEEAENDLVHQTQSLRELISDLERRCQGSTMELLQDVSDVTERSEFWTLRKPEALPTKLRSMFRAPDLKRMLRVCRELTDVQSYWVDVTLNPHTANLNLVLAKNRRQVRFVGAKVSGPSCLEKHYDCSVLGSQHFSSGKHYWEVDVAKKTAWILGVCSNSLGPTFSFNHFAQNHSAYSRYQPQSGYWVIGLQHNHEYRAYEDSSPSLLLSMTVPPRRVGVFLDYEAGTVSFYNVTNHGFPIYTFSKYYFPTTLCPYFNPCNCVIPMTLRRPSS
UniProt Q8IYM9: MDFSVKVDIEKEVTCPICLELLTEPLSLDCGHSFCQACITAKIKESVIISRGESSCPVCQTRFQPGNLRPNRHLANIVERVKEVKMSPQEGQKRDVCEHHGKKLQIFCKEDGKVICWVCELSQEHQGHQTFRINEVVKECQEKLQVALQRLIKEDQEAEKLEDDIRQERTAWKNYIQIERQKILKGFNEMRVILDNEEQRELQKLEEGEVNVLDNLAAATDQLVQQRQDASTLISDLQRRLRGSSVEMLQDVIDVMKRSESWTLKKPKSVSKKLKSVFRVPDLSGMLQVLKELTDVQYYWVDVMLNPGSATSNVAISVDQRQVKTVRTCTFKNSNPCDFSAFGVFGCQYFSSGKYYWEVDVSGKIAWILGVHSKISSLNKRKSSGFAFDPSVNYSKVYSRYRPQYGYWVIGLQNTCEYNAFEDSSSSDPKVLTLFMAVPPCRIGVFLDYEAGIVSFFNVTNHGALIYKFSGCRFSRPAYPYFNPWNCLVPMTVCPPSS

What was measured:
GST-Galectin-3 (human) = GST-Galectin-3 (human) (UniProt P17931); test: GST pull-down of in vitro translated 35S-labelled Myc-HA-TRIM
GST-Galectin-8 (human) = molecular target: T1, GST-Galectin-8 (human); test: as above
T1 sequence: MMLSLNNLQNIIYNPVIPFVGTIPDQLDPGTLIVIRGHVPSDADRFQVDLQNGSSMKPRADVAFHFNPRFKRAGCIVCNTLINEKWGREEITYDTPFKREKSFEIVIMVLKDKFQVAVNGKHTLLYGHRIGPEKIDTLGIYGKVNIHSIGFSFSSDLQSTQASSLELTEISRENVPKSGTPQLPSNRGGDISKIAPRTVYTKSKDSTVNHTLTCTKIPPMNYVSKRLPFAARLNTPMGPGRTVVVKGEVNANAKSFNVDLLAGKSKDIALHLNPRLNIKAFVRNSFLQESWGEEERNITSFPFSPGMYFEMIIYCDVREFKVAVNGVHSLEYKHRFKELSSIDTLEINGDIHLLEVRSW

Substance	binding (GST-Galectin-3 (human))	binding (GST-Galectin-8 (human))
35S-Myc-HA-TRIM6 (in vitro translated) (from UniProt Q9C030 1-488)	binds	binds
35S-Myc-HA-TRIM22 (in vitro translated) (from UniProt Q8IYM9 1-498)	binds	binds
